From the supplement of paper PMC4683952
The list shows a part of the results. How the calls were made is not given here. This data set is noisy: repeats of one test often differ as much as different tests do.

system: Lgr5 (MarsCy1-Lgr5-EGFP, U2OS); experiment: cell-surface Lgr5 expression (SCi1 fluorescence, background-subtracted) relative to WT DMSO (fold of DMSO control); higher = more Lgr5 at the plasma membrane; settings: U2OS MarsCy1-Lgr5-EGFP stable; treatment time: overnight; library: Kinase Gold; 20 µM
Experimental: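 U2OS cells stably expressing MarsCy1-Lgr5-EGFP in 384-well plates were incubated overnight with single-dose compounds. Cell-surface Lgr5 was stained with SCi1 and scanned at 700 nm on a LI-COR Odyssey. Intensity was background-subtracted (parental U2OS) and expressed relative to WT DMSO wells.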

SMILES	cell-surface Lgr5 expression
O=c1[nH]c(/C=C/c2ccc(O)cc2)nc2ccccc12	inactive: 1.13
Cc1cccc(NC(=O)c2c(O)c3ccccc3[nH]c2=O)c1	inactive: 0.909
O=C(Cc1ccccc1)NNC(=O)c1c(O)c2ccccc2[nH]c1=O	inactive: 0.688
CN(C)c1ccc2c3c(cccc13)C(=O)N(c1ccc(O)cc1)C2=O	inactive: 0.789
O=C(O)/C=C\C(=O)Nc1ccc2cn[nH]c2c1	inactive: 0.967
COc1ccc2oc(=O)c(C(=O)Nc3ccc(C)cc3)cc2c1	inactive: 0.92
NC(=O)Cn1c2[n+](c3ccccc31)CC(O)CS2 (stereo not given)	inactive: 0.891
CCn1c(=O)c(C(=O)Nc2ccc(Cl)cc2)c(O)c2ccccc21	inactive: 0.651
CNC(=S)NNC(=O)c1cccnc1	inactive: 0.926
Cc1c(NC(=O)c2ccncc2)c(=O)n(-c2ccccc2)n1C	inactive: 0.716
CCCn1c(=O)c(C(=O)NNC(C)=O)c(O)c2ccccc21	inactive: 0.663
NC(Cc1c[nH]c2ccccc12)C(=O)NCc1ccco1 (stereo not given)	inactive: 0.677
COc1cccc(C(=O)/C=C\Nc2ccc3c(c2)OCO3)c1	inactive: 0.813
O=C(COc1ccccc1)NNC(=O)c1cc2ccccc2o1	inactive: 0.875
N=c1oc2cc(O)ccc2cc1C(=O)Nc1ccccn1	inactive: 0.652
COc1ccccc1OCC(=O)NNC(=O)C1CCCO1 (stereo not given)	inactive: 1.01
O=C1SC(Nc2ccc3ccccc3c2)C(=O)N1c1ccccc1 (stereo not given)	inactive: 1.01
COc1ccccc1NC(=O)c1cc2ccc(O)cc2oc1=O	inactive: 0.71
O=C(Nc1ccccc1)Nc1nnc(Cc2ccccc2)s1	inactive: 0.81
Cc1cccc(Nc2nc(NCCO)nc(N3CCOCC3)n2)c1	inactive: 0.761

Part of the list above, as labelled records.
NC(Cc1c[nH]c2ccccc12)C(=O)NCc1ccco1 (stereo not given)
  cell-surface Lgr5 expression: inactive: 0.677
COc1ccccc1OCC(=O)NNC(=O)C1CCCO1 (stereo not given)
  cell-surface Lgr5 expression: inactive: 1.01

Continued:

SMILES	cell-surface Lgr5 expression
CC1(C(=O)C[n+]2cccc(C(N)=O)c2)CCC(=O)O1 (stereo not given)	inactive: 0.905
Nc1ccc2nc(-c3cccc(O)c3)[nH]c2c1	inactive: 0.863
NS(=O)(=O)c1ccc(N/C=C\C(=O)c2ccc3c(c2)OCO3)cc1	inactive: 0.904
COc1ccc2oc(=O)c(C(=O)Nc3ccccc3C)cc2c1	inactive: 0.879
Cc1ccc(S(=O)(=O)/N=C(\N)Nc2nc3ccccc3o2)cc1	inactive: 1.13
Cc1ccccc1NC(=O)c1ccc([N+](=O)[O-])o1	inactive: 0.316
O=C(NCc1ccncc1)C(=O)NCc1cccnc1	inactive: 0.742
O=C(/C=C/c1ccccc1)NCCc1c[nH]c2ccccc12	inactive: 0.857
CC(C)C(=O)NNC(=O)c1c(O)c2ccccc2[nH]c1=O	inactive: 0.66
Nc1nc(NC(=S)Nc2ccccc2)cc(=O)[nH]1	inactive: 0.72
Cc1ccccc1NC(=S)NC(=O)/C=C/c1ccco1	inactive: 0.688
CC(=O)c1ccc(-c2ccc(/C=C3/SC(=S)NC3=O)o2)cc1	inactive: 0.527
COc1ccc(OC)c(N/C(C)=C/C(=O)c2ccncc2)c1	inactive: 0.611
CC(=O)NNC(=O)C(=O)c1c[nH]c2ccccc12	inactive: 0.632
O=C(NNC(=O)c1ccco1)c1cnccn1	inactive: 0.827
COc1ccc2oc(=O)c(C(=O)C[n+]3ccc4ccccc4c3)cc2c1	inactive: 0.521
Nc1ccc(NC(=O)c2ccccn2)cc1	inactive: 0.729
CCn1c(=O)c(C(=O)NNC(=O)C(C)C)c(O)c2ccccc21	inactive: 0.771
Cc1ccc(NC(=S)NC(=O)c2ccc(Cl)cc2Cl)nc1	inactive: 0.948
CC(=O)Nc1ccc(Nc2cc(C)nc3ccc(C)cc23)cc1	inactive: 1.08
